# From the supplement of paper PMC10849652
# Sequences of proteins named here, by UniProt entry; tags and fusion partners are left off. A change or cut given only in a name is not applied to a line headed by its entry.
# UniProt O15156: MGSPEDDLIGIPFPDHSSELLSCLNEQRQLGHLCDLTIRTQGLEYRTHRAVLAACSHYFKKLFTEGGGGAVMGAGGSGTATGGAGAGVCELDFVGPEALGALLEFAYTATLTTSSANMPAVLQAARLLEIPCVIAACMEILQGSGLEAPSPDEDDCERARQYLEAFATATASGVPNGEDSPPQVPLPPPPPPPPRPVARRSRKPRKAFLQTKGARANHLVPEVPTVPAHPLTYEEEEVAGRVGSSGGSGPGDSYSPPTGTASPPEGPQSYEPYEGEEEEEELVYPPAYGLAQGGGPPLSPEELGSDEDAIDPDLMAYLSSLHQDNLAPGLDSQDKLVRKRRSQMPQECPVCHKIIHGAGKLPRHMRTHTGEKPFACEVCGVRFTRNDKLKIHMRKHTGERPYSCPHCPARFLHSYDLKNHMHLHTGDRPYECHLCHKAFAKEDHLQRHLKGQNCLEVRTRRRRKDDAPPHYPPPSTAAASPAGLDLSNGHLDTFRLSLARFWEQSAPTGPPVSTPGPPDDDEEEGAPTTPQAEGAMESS
# UniProt Q9NYG2: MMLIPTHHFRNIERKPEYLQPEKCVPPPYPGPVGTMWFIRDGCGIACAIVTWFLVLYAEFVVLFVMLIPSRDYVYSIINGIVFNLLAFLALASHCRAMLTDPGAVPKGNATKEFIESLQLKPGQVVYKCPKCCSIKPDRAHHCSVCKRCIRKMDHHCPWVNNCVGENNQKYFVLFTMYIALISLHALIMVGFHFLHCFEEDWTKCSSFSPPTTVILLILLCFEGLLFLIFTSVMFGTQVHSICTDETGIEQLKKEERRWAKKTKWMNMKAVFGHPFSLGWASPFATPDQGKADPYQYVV
# UniProt Q86WB0: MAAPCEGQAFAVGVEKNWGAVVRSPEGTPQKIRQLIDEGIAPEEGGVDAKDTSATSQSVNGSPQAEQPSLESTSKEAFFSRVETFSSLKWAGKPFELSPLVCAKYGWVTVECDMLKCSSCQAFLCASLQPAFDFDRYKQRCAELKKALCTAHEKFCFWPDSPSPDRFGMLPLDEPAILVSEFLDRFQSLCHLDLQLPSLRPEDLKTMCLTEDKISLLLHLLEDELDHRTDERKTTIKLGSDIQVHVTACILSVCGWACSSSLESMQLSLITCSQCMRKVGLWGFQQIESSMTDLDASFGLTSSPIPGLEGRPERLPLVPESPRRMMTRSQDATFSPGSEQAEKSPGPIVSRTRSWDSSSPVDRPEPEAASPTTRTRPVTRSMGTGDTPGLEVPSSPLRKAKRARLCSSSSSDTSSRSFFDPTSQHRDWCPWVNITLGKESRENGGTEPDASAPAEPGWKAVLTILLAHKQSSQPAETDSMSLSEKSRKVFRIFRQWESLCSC
# UniProt P37275: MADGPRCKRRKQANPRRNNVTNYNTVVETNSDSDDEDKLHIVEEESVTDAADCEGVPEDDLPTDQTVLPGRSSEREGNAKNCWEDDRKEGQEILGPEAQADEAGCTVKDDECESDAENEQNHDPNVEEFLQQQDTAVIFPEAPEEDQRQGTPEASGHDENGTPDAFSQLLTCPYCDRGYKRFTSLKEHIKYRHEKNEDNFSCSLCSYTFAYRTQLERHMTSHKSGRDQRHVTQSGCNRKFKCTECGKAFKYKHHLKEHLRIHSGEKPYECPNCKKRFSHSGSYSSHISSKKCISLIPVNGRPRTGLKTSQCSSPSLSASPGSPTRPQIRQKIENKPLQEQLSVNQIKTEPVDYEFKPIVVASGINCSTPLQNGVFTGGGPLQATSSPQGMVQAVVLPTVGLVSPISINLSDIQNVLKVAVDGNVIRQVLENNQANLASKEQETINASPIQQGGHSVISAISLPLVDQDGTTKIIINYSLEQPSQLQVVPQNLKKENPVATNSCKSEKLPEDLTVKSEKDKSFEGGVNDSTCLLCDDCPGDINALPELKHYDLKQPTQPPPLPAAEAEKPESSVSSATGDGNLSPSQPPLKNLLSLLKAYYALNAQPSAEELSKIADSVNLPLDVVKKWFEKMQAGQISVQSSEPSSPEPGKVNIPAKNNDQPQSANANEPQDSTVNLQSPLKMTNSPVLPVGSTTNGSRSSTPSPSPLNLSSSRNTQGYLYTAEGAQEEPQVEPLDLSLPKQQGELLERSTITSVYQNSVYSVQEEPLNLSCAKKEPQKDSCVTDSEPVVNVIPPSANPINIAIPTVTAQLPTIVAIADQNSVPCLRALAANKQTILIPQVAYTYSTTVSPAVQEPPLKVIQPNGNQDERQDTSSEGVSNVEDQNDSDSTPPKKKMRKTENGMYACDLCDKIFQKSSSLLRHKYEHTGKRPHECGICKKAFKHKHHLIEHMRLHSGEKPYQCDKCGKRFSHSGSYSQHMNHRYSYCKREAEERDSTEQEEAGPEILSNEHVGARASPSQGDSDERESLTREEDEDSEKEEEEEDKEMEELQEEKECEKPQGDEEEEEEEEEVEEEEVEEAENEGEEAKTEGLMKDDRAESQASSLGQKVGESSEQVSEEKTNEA
# UniProt Q9ULJ3: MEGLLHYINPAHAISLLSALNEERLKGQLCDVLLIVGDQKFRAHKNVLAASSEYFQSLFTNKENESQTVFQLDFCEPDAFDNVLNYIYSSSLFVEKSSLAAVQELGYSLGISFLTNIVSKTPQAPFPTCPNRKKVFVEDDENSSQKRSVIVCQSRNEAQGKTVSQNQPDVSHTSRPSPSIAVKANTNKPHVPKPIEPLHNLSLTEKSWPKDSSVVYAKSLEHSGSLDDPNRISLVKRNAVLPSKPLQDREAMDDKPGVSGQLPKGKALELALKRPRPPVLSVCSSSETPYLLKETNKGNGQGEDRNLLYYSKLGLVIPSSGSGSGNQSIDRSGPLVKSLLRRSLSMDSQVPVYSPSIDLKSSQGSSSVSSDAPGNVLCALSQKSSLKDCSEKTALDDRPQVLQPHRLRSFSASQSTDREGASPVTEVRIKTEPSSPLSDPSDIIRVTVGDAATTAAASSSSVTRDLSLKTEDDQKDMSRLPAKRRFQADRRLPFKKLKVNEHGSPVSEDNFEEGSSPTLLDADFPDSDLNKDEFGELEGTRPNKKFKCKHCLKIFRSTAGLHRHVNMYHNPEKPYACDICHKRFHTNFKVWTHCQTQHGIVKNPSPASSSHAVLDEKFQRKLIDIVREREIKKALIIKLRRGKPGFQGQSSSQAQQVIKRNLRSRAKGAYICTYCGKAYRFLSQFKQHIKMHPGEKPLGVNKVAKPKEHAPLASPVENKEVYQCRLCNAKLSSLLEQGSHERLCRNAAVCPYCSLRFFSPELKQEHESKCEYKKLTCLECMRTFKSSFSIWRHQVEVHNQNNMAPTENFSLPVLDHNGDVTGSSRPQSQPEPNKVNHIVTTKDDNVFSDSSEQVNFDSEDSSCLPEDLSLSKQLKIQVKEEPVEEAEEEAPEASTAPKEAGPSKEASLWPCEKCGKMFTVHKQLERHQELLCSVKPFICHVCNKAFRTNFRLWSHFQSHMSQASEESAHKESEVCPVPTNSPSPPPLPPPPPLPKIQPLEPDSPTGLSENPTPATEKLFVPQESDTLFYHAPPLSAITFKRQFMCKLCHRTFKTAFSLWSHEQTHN
# UniProt O76080: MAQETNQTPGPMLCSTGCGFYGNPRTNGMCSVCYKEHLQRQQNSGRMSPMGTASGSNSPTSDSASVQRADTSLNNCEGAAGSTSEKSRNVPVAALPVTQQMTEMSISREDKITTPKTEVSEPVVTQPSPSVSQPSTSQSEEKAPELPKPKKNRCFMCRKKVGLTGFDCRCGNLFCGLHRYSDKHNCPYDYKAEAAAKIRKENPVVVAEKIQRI
# UniProt Q96DT7: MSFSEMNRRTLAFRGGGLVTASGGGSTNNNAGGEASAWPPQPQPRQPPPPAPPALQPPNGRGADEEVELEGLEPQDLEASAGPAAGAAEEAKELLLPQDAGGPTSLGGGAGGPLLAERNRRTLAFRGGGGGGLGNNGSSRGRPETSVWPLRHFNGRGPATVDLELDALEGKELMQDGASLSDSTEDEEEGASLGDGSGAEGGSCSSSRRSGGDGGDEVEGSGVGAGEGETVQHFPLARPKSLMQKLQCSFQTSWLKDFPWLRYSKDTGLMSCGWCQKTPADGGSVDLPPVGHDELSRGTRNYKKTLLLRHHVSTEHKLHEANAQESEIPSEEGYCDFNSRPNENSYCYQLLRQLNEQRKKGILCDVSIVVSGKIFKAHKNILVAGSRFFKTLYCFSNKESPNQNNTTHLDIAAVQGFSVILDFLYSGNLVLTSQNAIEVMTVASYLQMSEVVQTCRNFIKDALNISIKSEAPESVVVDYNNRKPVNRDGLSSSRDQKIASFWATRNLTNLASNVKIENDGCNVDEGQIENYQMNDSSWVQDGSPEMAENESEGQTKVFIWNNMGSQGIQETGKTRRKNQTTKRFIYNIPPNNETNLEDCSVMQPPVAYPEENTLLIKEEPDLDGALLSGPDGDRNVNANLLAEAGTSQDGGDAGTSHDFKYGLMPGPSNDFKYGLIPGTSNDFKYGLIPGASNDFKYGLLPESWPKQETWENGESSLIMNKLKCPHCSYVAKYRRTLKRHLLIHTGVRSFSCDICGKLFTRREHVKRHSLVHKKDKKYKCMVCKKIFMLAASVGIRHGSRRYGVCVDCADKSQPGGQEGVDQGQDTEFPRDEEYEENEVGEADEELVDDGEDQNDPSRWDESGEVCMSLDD
# UniProt Q96EC8: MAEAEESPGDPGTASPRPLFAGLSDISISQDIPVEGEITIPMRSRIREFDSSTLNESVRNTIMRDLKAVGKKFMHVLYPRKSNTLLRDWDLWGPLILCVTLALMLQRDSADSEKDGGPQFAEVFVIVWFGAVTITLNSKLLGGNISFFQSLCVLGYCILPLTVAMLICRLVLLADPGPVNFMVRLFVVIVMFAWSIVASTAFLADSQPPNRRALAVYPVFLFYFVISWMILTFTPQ
# UniProt P07947, whole entry, looked up: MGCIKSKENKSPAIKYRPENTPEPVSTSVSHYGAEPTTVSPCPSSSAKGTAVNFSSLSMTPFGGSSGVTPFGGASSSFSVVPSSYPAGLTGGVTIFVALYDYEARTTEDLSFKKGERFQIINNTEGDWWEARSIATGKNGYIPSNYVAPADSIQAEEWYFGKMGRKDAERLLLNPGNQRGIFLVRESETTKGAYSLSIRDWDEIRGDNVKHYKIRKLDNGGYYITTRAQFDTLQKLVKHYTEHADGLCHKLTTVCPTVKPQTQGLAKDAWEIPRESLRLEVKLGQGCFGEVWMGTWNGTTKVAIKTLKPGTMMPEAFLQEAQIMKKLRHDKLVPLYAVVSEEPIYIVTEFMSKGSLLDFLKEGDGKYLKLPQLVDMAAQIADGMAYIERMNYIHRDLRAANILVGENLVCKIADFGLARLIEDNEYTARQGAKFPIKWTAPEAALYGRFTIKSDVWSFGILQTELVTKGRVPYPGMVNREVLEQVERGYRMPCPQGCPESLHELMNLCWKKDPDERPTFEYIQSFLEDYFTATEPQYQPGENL
# UniProt P62699: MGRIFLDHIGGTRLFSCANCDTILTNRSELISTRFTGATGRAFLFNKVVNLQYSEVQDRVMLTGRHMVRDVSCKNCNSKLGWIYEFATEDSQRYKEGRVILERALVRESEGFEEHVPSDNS
# UniProt Q8NBI6: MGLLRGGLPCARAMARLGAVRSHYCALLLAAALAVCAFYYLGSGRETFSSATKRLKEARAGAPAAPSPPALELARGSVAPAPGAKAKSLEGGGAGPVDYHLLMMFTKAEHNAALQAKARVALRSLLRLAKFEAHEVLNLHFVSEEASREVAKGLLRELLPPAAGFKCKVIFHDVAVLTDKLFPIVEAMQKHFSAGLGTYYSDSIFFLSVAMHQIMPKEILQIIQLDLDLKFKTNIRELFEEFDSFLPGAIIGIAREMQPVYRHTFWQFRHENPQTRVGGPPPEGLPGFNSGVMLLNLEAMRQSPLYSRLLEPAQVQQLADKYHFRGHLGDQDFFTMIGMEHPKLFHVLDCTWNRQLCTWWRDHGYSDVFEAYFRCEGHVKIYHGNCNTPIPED
# UniProt P67809, whole entry, looked up: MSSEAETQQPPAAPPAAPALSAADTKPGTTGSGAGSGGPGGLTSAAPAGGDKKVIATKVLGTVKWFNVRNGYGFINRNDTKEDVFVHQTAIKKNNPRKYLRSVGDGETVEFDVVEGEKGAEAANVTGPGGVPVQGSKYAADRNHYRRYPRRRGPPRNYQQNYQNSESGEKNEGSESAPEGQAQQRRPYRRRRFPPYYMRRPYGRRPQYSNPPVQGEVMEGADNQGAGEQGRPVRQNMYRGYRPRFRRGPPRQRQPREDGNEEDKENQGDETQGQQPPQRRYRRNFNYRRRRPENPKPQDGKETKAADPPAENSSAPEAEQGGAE
# UniProt O15498: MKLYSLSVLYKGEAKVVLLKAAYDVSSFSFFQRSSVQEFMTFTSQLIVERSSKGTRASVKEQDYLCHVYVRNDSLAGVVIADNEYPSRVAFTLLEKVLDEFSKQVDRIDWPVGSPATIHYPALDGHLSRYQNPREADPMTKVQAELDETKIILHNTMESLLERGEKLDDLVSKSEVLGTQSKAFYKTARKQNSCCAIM
# Some of the results follow.
# Compound: C1=CC=C(C=C1)[C@H](COC2=CC3=C(C=C2)NC(=O)N3)NC(=O)C4=CC=CN(C4=O)CC5=CC(=C(C=C5)F)F
# Assay: log2 fold change, soluble protein after heating vs DMSO (PISA); higher = thermal stabilisation; K562 lysate, 10 uM; active = over 0.2 and 3.5 SD of the protein, either way, in both replicates (recomputed)
# Outline: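 The values are log-two fold changes in thermal stability compared with solvent controls and come from duplicates. They were obtained by TMTpro 16plex LC-MS/MS, with channel sums equalised, on the supernatant after 21,000xg for 90 min. That supernatant came from crude K562 extract at 1 mg/mL protein treated with 10 μM compound for 30 min, heated for 3 min across 48°C-58°C, pooled and brought to 0.5% NP-40 at 4°C.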
row,Target,log2 fold change
1,YIPF3 (UniProt Q9GZM5),inactive: 0.01
2,ZFR (UniProt Q96KR1),inactive: 0.047
3,ZCCHC10 (UniProt Q8TBK6),inactive: -0.017
4,ZBTB7B isoform 2 (UniProt O15156),inactive: -0.019
5,ZC3H18 (UniProt E7ERS3),inactive: 0.01
6,YTHDC1 (UniProt Q96MU7),inactive: 0.034
7,ZDHHC20 (UniProt Q5W0Z9),inactive: 0.05
8,XPO6 (UniProt Q96QU8),inactive: -0.053
9,ZDHHC3 isoform 2 (UniProt Q9NYG2),inactive: -0.11
10,ZC3HC1 (UniProt Q86WB0),inactive: 0.002
11,ZCCHC3 (UniProt Q9NUD5),inactive: -0.006
12,ZEB1 isoform 2 (UniProt P37275),inactive: -0.518
13,ZBTB21 (UniProt Q9ULJ3),inactive: -0.014
14,ZFAND5 (UniProt O76080),inactive: 0.093
15,YWHAQ (UniProt P27348),inactive: 0.002
16,ZBTB10 (UniProt Q96DT7),inactive: 0
17,YIPF6 (UniProt Q96EC8),inactive: 0.023
18,YES1 (UniProt P07947),inactive: -0.068
19,YPEL5 (UniProt P62699),inactive: 0.05
20,XXYLT1 (UniProt Q8NBI6),inactive: 0.028
21,YWHAG (UniProt P61981),inactive: 0.038
22,YBX1 (UniProt P67809),inactive: 0.02
23,YKT6 (UniProt O15498),inactive: 0.012

# Retrieved one by one from the list above (2):
row,Target,log2 fold change
18,YES1 (UniProt P07947),inactive: -0.068
21,YWHAG (UniProt P61981),inactive: 0.038
